Data published in the supplement of paper PMC10849652.
This is one part of the list.

By UniProt entry, the sequences of proteins in these tests, tags left out. Where a name states a change or a piece, a line headed by the entry shows the natural chain unless it says otherwise.
UniProt Q08117: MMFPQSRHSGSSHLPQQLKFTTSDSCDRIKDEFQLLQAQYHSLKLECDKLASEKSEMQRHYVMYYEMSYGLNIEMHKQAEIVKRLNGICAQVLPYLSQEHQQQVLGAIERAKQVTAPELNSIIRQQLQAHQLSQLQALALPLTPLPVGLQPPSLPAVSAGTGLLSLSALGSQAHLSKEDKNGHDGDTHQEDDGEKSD
UniProt Q8IUX1: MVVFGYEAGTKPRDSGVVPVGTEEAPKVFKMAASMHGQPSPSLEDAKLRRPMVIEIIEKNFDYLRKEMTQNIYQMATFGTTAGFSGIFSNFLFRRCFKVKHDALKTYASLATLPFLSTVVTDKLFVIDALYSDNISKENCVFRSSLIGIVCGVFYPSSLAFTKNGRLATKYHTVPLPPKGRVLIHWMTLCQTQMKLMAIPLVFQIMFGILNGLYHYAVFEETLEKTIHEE
UniProt Q96I45: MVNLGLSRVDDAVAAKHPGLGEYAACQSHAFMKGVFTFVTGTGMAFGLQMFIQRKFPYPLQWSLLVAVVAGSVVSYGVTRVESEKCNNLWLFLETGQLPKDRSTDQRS
UniProt Q04726: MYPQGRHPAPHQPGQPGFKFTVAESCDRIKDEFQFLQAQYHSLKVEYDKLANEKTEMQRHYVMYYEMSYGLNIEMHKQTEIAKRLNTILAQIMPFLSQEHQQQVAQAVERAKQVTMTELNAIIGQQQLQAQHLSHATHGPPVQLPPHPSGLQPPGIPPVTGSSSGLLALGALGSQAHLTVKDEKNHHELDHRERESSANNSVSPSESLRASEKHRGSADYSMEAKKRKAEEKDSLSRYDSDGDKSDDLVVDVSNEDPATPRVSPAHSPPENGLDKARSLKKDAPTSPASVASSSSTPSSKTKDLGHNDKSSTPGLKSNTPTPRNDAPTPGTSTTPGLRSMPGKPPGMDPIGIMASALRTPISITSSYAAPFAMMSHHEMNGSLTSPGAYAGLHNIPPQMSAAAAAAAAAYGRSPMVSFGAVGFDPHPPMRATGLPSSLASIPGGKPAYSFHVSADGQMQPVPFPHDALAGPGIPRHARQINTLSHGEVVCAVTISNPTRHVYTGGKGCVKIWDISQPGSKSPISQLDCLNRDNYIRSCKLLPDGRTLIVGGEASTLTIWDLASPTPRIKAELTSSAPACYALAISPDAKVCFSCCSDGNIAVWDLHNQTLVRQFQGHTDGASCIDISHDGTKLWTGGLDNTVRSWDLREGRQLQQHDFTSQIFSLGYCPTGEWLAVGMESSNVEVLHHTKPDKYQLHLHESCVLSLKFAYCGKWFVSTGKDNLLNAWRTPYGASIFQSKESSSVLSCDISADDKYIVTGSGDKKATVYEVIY
UniProt Q9Y2S6, whole entry, looked up: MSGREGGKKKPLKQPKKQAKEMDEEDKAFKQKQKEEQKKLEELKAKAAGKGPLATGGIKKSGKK
UniProt Q96IK0: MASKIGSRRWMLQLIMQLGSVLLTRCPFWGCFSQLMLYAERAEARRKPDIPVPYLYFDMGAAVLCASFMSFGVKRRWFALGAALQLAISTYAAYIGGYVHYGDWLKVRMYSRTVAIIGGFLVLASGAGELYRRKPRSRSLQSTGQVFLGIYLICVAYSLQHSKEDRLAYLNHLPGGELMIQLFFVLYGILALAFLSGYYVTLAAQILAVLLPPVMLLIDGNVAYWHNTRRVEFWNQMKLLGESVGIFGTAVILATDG
UniProt Q9UNS1: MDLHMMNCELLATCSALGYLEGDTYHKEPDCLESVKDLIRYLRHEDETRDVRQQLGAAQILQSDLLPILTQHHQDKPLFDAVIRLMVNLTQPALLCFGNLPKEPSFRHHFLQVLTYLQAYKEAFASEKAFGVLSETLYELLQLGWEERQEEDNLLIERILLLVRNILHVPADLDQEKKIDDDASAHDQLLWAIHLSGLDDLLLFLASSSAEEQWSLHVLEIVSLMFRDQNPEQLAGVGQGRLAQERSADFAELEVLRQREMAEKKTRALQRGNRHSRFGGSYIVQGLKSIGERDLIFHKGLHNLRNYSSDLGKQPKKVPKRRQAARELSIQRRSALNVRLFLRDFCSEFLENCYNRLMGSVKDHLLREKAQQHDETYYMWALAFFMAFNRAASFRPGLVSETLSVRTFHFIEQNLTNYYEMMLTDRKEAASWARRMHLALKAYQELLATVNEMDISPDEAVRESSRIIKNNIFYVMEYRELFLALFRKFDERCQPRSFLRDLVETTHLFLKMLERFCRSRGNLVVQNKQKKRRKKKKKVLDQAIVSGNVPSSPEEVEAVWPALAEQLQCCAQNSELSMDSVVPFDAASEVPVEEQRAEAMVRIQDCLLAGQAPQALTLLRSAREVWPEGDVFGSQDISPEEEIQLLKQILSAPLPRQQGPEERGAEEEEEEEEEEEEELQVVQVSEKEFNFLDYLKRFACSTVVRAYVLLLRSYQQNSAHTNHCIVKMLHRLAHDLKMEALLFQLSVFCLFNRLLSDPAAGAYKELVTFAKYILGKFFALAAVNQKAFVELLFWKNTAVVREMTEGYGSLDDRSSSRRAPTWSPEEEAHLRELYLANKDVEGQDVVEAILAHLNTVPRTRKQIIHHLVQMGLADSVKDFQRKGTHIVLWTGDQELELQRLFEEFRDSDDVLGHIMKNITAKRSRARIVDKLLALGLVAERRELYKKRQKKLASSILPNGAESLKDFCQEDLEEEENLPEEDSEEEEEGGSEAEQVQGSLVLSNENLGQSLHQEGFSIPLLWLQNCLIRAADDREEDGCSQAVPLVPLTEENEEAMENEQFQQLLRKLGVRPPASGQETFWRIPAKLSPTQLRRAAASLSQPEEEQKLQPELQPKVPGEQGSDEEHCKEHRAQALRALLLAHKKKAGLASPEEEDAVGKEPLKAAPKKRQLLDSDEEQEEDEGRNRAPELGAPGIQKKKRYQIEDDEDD
UniProt Q9NPL8: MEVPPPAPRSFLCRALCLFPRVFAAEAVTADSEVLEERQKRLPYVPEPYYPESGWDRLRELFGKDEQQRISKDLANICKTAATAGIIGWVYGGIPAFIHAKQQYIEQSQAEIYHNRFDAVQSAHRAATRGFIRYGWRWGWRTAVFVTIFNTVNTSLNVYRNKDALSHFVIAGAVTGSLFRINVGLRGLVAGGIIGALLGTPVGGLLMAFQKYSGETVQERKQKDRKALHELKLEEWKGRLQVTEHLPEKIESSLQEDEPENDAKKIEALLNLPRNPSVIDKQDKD
UniProt O75663: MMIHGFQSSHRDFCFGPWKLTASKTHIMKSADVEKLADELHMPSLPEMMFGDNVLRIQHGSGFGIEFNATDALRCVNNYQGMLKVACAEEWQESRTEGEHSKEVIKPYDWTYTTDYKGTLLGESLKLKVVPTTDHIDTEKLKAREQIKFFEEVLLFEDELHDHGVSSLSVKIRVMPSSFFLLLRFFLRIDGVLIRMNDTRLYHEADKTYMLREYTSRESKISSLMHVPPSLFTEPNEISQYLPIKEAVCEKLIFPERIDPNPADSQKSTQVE
UniProt Q99595: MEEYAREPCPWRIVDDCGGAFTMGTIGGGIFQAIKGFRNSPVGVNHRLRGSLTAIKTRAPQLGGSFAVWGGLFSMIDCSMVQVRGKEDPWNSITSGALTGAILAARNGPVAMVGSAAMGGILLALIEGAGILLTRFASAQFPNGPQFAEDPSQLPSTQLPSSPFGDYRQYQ
UniProt Q9NWX6: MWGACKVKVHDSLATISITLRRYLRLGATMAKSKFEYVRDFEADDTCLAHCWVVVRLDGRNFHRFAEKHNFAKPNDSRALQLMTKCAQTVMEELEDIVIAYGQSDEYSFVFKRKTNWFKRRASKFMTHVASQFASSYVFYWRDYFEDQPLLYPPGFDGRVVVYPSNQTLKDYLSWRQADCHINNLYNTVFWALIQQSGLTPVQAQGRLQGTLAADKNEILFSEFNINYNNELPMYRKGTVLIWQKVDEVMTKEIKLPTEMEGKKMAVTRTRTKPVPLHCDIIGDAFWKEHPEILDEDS
UniProt Q9Y5J9: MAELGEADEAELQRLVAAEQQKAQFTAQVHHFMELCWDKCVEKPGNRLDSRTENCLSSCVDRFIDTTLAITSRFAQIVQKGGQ
UniProt Q9H061: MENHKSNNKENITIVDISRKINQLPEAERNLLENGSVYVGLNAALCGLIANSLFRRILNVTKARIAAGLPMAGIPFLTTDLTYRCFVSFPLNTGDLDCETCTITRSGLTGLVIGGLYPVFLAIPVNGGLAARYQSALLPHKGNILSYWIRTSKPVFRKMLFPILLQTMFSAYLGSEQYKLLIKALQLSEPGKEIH
UniProt Q96CP7: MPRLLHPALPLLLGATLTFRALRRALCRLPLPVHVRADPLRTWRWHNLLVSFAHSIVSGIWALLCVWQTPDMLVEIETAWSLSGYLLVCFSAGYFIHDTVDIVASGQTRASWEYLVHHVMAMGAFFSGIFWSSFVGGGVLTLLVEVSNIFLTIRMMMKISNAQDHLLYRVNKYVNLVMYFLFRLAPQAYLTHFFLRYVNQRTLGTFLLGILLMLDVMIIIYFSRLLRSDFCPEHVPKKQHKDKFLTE
UniProt Q8IUC6, whole entry, looked up: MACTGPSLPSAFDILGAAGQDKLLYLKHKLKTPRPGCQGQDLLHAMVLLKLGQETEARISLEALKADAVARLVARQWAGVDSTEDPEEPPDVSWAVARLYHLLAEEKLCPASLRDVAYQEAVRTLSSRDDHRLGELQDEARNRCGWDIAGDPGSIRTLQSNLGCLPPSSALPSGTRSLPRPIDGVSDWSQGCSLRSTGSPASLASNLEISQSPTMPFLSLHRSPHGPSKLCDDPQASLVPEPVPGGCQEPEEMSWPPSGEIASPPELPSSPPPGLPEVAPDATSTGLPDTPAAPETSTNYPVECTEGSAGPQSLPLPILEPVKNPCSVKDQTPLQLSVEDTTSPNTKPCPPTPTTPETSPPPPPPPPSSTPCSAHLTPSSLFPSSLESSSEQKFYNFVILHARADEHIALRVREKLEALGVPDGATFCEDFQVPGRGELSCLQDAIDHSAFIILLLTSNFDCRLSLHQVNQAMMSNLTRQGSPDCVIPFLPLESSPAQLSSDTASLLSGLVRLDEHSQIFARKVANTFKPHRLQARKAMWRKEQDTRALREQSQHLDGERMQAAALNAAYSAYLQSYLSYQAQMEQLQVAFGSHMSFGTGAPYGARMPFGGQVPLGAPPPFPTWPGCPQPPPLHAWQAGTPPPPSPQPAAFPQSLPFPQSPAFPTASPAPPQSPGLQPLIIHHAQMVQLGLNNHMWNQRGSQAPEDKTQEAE
UniProt P29401: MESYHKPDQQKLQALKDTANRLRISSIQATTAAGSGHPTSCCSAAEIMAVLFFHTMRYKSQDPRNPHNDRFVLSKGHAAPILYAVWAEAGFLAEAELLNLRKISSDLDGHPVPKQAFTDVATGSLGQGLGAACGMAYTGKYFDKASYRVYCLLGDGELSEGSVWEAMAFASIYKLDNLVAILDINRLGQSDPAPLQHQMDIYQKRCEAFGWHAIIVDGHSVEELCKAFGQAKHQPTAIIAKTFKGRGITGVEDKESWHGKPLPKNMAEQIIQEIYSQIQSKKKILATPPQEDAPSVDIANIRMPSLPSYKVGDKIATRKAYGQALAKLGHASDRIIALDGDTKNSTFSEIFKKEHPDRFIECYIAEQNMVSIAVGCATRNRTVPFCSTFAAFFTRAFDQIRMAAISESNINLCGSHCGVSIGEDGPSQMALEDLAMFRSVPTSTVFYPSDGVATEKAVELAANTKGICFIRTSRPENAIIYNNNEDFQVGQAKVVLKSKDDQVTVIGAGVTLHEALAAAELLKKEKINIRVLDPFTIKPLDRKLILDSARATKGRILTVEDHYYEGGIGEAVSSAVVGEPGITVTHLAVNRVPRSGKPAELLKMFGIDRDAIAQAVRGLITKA
UniProt Q9NXG2: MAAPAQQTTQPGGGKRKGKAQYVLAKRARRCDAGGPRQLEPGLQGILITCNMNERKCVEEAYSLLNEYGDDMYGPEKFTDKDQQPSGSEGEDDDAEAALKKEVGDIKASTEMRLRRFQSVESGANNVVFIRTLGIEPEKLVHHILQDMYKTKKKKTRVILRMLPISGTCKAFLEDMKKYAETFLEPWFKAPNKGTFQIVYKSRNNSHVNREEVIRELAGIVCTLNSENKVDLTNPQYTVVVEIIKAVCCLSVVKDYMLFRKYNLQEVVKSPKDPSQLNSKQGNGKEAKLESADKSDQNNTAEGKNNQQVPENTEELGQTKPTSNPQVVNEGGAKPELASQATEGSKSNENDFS
UniProt Q96AN5: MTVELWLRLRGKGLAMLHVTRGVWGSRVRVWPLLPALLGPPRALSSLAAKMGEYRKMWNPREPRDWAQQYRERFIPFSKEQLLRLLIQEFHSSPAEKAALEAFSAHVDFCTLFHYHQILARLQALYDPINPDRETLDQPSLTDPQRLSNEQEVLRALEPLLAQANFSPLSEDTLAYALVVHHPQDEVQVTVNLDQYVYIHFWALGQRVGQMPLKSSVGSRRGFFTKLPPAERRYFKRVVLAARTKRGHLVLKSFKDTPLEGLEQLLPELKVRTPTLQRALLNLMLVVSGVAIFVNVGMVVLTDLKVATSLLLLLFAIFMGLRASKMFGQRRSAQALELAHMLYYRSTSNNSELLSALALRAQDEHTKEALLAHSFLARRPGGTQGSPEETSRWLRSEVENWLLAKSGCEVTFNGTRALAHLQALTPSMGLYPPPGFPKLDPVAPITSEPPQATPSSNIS

Columns and labels:
Assay in all cases: log2 fold change, soluble protein after heating vs DMSO (PISA); higher = thermal stabilisation; K562 lysate, 10 uM; active = over 0.2 and 3.5 SD of the protein, either way, in both replicates (recomputed)
nilotinib = compound: Cc1cn(-c2cc(NC(=O)c3ccc(C)c(Nc4nccc(-c5cccnc5)n4)c3)cc(C(F)(F)F)c2)cn1 [nilotinib]
Outline: (§1)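 A 30 min treatment with 10 μM compound was applied to crude K562 extract at 1 mg/mL protein in PBS pH 7.4 with 1 mM MgCl2. Heating for 3 min spanned 48°C-58°C, after which aliquots were pooled, adjusted to 0.5% NP-40 at 4°C and spun at 21,000xg for 90 min. TMTpro 16plex LC-MS/MS of the supernatant, with channel sums equalised, gave values recorded as log-two fold change in thermal stability against solvent controls, from duplicates.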

[1] = compound: Cc1nc(Nc2n[nH]c3c2CN(C(=O)N[C@H](CN(C)C)c2ccccc2)C3(C)C)c2sccc2n1
Outline: as §1

dasatinib = compound: Cc1nc(Nc2ncc(C(=O)Nc3c(C)cccc3Cl)s2)cc(N2CCN(CCO)CC2)n1 [dasatinib]
Outline: as §1

[2] = compound: Cc1ncc(-c2ccnc(Nc3ccc(S(C)(=O)=O)cc3)n2)n1C(C)C
Outline: as §1

[3] = compound: Cn1cc(-c2ccc3c(c2)CCN3C(=O)Cc2cccc(C(F)(F)F)c2)c2c(N)ncnc21
Outline: as §1

quisinostat = compound: Cn1cc(CNCC2CCN(c3ncc(C(=O)NO)cn3)CC2)c2ccccc21 [quisinostat]
Outline: as §1

tipifarnib = compound: Cn1cncc1[C@@](N)(c1ccc(Cl)cc1)c1ccc2c(c1)c(-c1cccc(Cl)c1)cc(=O)n2C [tipifarnib]
Outline: as §1

[4] = compound: NC(=O)Nc1cc(-c2cccc(F)c2)sc1C(=O)N[C@H]1CCCNC1
Outline: as §1

[5] = compound: NC(=O)c1cnc(N[C@@H]2CCCC[C@@H]2N)nc1Nc1cccc(-n2nccn2)c1
Outline: as §1

[6] = compound: NC1(c2ccc(-c3nc4ccn5c(=O)[nH]nc5c4cc3-c3ccccc3)cc2)CCC1
Outline: as §1

Target	log2 fold change (nilotinib)	log2 fold change [1]	log2 fold change (dasatinib)	log2 fold change [2]	log2 fold change [3]	log2 fold change (quisinostat)	log2 fold change (tipifarnib)	log2 fold change [4]	log2 fold change [5]	log2 fold change [6]
TLE5 isoform 2 (UniProt Q08117)	inactive: 0.094	inactive: -0.044	inactive: -0.058	inactive: 0.03	inactive: -0.013	inactive: -0.052	inactive: 0.005	inactive: 0.024	inactive: -0.037	inactive: -0.056
TMEM126B (UniProt Q8IUX1)	inactive: 0.024	inactive: -0.022	inactive: 0.042	inactive: 0.026	inactive: -0.016	inactive: 0.084	inactive: 0.07	inactive: -0.06	inactive: 0.034	inactive: 0.018
TMEM141 (UniProt Q96I45)	inactive: 0.009	inactive: -0.022	inactive: -0.038	inactive: -0.032	inactive: 0.018	inactive: -0.071	inactive: 0.016	inactive: -0.058	inactive: 0.03	inactive: 0
TLE3 isoform 5 (UniProt Q04726)	inactive: 0.142	inactive: -0.174	inactive: -0.007	inactive: -0.06	inactive: 0.028	inactive: -0.102	inactive: 0.05	inactive: -0.009	inactive: 0.024	inactive: 0.058
TMA7 (UniProt Q9Y2S6)	inactive: -0.043	inactive: 0.043	inactive: 0.06	inactive: -0.005	inactive: 0.011	inactive: 0.214	inactive: 0.047	inactive: -0.046	inactive: 0.019	inactive: -0.027
TMEM101 (UniProt Q96IK0)	inactive: -0.044	inactive: 0.002	inactive: -0.07	inactive: -0.057	inactive: -0.134	inactive: 0.124	inactive: -0.019	inactive: -0.035	inactive: -0.043	inactive: -0.059
TIMELESS (UniProt Q9UNS1)	inactive: 0.018	inactive: -0.039	inactive: -0.082	inactive: 0.024	inactive: 0.005	inactive: -0.137	inactive: -0.052	inactive: 0.045	inactive: 0.029	inactive: -0.035
TIMMDC1 (UniProt Q9NPL8)	inactive: 0.035	inactive: -0.019	inactive: 0.018	inactive: 0.022	inactive: -0.046	inactive: 0.036	inactive: -0.005	inactive: -0.028	inactive: -0.026	inactive: -0.008
TGFBRAP1 (UniProt Q8WUH2)	inactive: 0.005	inactive: -0.043	inactive: -0.048	inactive: -0.015	inactive: 0.06	inactive: -0.076	inactive: 0.004	inactive: 0.029	inactive: 0.009	inactive: 0.04
TIPRL (UniProt O75663)	inactive: 0.011	inactive: 0.02	inactive: 0.026	inactive: -0.001	inactive: -0.02	inactive: -0.014	inactive: -0.006	inactive: -0.013	inactive: -0.011	inactive: 0.017
TIMM17A (UniProt Q99595)	inactive: -0.016	inactive: 0.071	inactive: 0.051	inactive: -0.002	inactive: -0.149	inactive: 0.006	inactive: 0	inactive: 0.024	inactive: -0.017	inactive: -0.016
TMEM168 (UniProt Q9H0V1)	inactive: -0.017	inactive: 0.047	inactive: 0.027	inactive: 0.082	inactive: -0.023	inactive: -0.045	inactive: -0.104	inactive: -0.004	inactive: 0.116	inactive: -0.029
THG1L (UniProt Q9NWX6)	inactive: 0.003	inactive: -0.001	inactive: -0.006	inactive: 0.004	inactive: 0.006	inactive: 0.056	inactive: 0.027	inactive: -0.021	inactive: 0.003	inactive: -0.017
TIMM8B (UniProt Q9Y5J9)	inactive: 0.034	inactive: 0.096	inactive: -0.012	inactive: 0.278	inactive: 0.065	inactive: 0.045	inactive: 0.085	inactive: -0.067	inactive: 0.044	inactive: -0.025
TMEM14C (UniProt Q9P0S9)	inactive: 0.065	inactive: -0.089	inactive: 0.031	inactive: 0.13	inactive: 0.029	inactive: -0.299	inactive: -0.017	inactive: 0.029	inactive: -0.13	inactive: -0.07
TMEM126A (UniProt Q9H061)	inactive: 0.089	inactive: -0.009	inactive: -0.014	inactive: -0.068	inactive: -0.011	inactive: 0.177	inactive: 0.015	inactive: 0.02	inactive: 0.01	inactive: -0.079
TLCD1 (UniProt Q96CP7)	inactive: 0.087	inactive: 0.055	inactive: -0.035	inactive: 0.175	inactive: 0.283	inactive: -0.135	inactive: 0.051	inactive: -0.037	inactive: 0.011	inactive: -0.137
TMEM161A (UniProt Q9NX61)	inactive: -0.054	inactive: -0.091	inactive: -0.001	inactive: 0.019	inactive: 0.103	inactive: 0.007	inactive: 0.054	inactive: 0.05	inactive: -0.107	inactive: 0.017
TICAM1 (UniProt Q8IUC6)	inactive: 0.069	inactive: 0.016	inactive: 0.003	inactive: -0.047	inactive: -0.252	inactive: -0.044	inactive: -0.014	inactive: 0.076	inactive: 0.031	inactive: 0.191
TIMM22 (UniProt Q9Y584)	inactive: -0.062	inactive: 0.012	inactive: 0.057	inactive: -0.019	inactive: -0.04	inactive: 0.09	inactive: 0.066	inactive: 0.026	inactive: 0.008	inactive: 0.062
TMEM106B (UniProt Q9NUM4)	inactive: 0.002	inactive: 0	inactive: 0.001	inactive: 0.009	inactive: 0.149	inactive: -0.077	inactive: 0.09	inactive: -0.019	inactive: -0.054	inactive: -0.007
TKT isoform 2 (UniProt P29401)	inactive: 0.001	inactive: -0.003	inactive: 0.006	inactive: 0.011	inactive: 0.006	inactive: 0.018	inactive: 0.027	inactive: -0.022	inactive: -0.016	inactive: 0
TKFC (UniProt Q3LXA3)	inactive: -0.006	inactive: 0.003	inactive: 0.006	inactive: 0.027	inactive: -0.025	inactive: 0.016	inactive: 0.015	inactive: -0.004	inactive: -0.023	inactive: -0.001
TKT, A0A0B4J1R6	inactive: -0.035	inactive: -0.016	inactive: -0.18	inactive: -0.157	inactive: -0.058	inactive: -0.512	inactive: 0.006	inactive: -0.023	inactive: -0.017	inactive: -0.082
THOC2 (UniProt Q8NI27)	inactive: 0.02	inactive: -0.019	inactive: -0.044	inactive: -0.006	inactive: 0.01	inactive: -0.046	inactive: -0.02	inactive: 0.03	inactive: 0.003	inactive: -0.006
THUMPD1 (UniProt Q9NXG2)	inactive: 0.019	inactive: -0.038	inactive: -0.01	inactive: 0.021	inactive: 0.031	inactive: -0.052	inactive: 0.001	inactive: -0.009	inactive: -0.009	inactive: -0.008
TMA16 (UniProt Q96EY4)	inactive: -0.062	inactive: 0.012	inactive: 0.004	inactive: -0.007	inactive: 0.003	inactive: -0.032	inactive: 0.041	inactive: -0.001	inactive: -0.005	inactive: -0.003
TMED8 (UniProt Q6PL24)	inactive: 0.029	inactive: 0.024	inactive: 0.065	inactive: -0.045	inactive: 0.028	inactive: -0.042	inactive: 0.069	inactive: 0.028	inactive: 0.009	inactive: 0.085
TMEM143 (UniProt Q96AN5)	inactive: 0.153	inactive: -0.103	inactive: 0.543	inactive: 0.169	inactive: -0.023	inactive: 0.131	inactive: -0.046	inactive: -0.017	inactive: 0.079	
TLK1 isoform 2 (UniProt Q9UKI8)	inactive: -0.044	active: 0.414	inactive: -0.005	inactive: 0.188	inactive: -0.036	inactive: -0.23	inactive: 0.023	inactive: 0.133	inactive: 0.035	inactive: -0.021

Whole records from above. Values in the order: log2 fold change (nilotinib) | log2 fold change [1] | log2 fold change (dasatinib) | log2 fold change [2] | log2 fold change [3] | log2 fold change (quisinostat) | log2 fold change (tipifarnib) | log2 fold change [4] | log2 fold change [5] | log2 fold change [6]
TIMMDC1 (UniProt Q9NPL8) is listed with inactive: 0.035 | inactive: -0.019 | inactive: 0.018 | inactive: 0.022 | inactive: -0.046 | inactive: 0.036 | inactive: -0.005 | inactive: -0.028 | inactive: -0.026 | inactive: -0.008
TMEM161A (UniProt Q9NX61) is listed with inactive: -0.054 | inactive: -0.091 | inactive: -0.001 | inactive: 0.019 | inactive: 0.103 | inactive: 0.007 | inactive: 0.054 | inactive: 0.05 | inactive: -0.107 | inactive: 0.017
